In article PMC7862700:
Only a part is listed here, and it is no random draw. At the low end of the ranking the order means little.

These sequences were tested against SPI1 (UniProt P17947) (assay: DAPPL (digital affinity profiling via proximity ligation, sequencing)). Settings: 10 mM Tris-HCl pH 7.5, 50 mM NaCl, 1 mM DTT, 4% glycerol, room temperature, 30 min; GST-TFs on glutathione beads, 16-mer random dsDNA library, 0.1% …; high values mean tight binding; double strand, one strand shown; scale: fold enrichment (6-mer frequency, TF over GST control).

Sequence | binding signal
GAATGC | 0.949
AGAAAC | 0.975
GAGCTC | 0.846
GTCTGG | 0.916
TCGTCT | 1.26
TCCAGT | 0.688
CTAGGG | 0.881
GAAACC | 0.99
GGTACA | 0.95
CGTACG | 0.937
GCGACA | 0.975
CCATCC | 1.31
TCATTG | 0.965
CCAAAC | 1.06
GCATCT | 0.957
AAGGCT | 0.907
CGGTTT | 1.44
GTTTAG | 0.847
CATGTT | 1.04

Sequence | binding signal
CAAAAG | 1.08
GGTATG | 0.937
AACACT | 1.36
ATTGTG | 0.945
AAAGGC | 0.891
GTGCCG | 0.864
AGCAGA | 0.994
GAAAGG | 0.91
CTGTGT | 0.846
GCGATA | 1.03
TTCTTG | 1.45
CTGTTC | 1.42
CGCGAA | 0.966
CCGGTG | 0.952
CGAGTA | 0.878
ATGCCA | 0.988
TTATAA | 1.16
CGCGTT | 0.967
GTTGTC | 0.876

In another format: entries from further up
Sequence	binding signal
CTGTTC	1.42
CGCGAA	0.966
